Results are given in words; binding and its absence hold for the method and conditions named. In cells and extracts the contact can be indirect. These calls come from enrichment with a bait or labelling near it, and not all partners need be listed.

Amino acid sequences for entries named in this document (tags omitted).
UniProt O15392: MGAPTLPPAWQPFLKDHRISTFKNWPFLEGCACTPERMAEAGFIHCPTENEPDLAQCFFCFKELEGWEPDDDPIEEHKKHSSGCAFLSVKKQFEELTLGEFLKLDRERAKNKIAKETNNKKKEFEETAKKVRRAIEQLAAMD
UniProt Q92785: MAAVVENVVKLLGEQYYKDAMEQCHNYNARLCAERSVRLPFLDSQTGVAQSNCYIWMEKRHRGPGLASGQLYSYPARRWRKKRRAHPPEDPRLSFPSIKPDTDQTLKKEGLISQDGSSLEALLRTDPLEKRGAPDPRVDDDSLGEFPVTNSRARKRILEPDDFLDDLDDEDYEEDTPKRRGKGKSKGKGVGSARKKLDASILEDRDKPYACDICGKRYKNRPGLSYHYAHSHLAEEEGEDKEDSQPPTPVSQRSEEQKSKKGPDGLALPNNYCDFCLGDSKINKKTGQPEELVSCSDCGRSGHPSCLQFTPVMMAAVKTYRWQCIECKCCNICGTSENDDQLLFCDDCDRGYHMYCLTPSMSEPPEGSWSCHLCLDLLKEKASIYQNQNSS
UniProt Q86U86: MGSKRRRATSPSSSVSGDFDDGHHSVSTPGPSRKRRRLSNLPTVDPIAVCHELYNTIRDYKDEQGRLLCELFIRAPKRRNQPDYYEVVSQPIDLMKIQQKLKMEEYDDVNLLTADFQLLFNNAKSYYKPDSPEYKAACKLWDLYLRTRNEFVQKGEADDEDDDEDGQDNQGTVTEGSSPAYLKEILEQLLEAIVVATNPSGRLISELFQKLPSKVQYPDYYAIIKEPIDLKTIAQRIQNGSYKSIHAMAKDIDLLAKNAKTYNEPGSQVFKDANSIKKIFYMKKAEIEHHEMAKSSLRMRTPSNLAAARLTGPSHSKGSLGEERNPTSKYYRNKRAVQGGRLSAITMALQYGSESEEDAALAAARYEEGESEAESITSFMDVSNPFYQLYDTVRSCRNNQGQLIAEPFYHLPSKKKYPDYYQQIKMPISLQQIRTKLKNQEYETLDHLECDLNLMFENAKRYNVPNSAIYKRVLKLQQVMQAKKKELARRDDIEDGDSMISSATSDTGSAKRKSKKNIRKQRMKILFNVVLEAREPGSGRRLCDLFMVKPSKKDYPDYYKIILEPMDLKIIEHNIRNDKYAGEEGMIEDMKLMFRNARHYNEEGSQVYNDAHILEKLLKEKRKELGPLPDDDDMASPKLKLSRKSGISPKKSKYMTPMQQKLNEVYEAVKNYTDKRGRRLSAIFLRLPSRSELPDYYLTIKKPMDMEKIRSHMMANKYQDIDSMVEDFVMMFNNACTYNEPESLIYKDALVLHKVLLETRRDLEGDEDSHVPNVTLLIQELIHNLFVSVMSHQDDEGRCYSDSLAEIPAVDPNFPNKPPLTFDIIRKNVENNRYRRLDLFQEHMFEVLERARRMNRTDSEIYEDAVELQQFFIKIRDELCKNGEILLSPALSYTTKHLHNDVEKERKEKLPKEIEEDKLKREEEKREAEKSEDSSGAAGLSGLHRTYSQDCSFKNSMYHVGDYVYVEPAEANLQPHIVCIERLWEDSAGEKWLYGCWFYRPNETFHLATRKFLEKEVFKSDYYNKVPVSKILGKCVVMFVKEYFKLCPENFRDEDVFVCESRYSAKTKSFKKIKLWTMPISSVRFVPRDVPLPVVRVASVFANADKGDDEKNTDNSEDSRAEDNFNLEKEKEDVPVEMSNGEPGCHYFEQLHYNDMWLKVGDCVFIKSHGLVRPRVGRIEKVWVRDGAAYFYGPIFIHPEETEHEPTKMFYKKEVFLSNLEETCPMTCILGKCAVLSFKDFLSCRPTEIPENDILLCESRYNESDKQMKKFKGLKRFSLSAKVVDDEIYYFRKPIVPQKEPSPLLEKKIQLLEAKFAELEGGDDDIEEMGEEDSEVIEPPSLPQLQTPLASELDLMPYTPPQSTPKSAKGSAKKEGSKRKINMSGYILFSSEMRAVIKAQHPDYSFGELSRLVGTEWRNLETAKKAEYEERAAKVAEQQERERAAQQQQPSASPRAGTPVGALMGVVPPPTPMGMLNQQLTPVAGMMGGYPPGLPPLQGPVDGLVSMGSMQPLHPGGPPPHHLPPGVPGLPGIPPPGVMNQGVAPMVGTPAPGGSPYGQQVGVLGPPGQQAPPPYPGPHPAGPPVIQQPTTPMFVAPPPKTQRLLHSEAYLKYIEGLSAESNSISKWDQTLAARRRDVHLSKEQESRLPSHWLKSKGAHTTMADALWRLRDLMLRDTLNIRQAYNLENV
UniProt P51531: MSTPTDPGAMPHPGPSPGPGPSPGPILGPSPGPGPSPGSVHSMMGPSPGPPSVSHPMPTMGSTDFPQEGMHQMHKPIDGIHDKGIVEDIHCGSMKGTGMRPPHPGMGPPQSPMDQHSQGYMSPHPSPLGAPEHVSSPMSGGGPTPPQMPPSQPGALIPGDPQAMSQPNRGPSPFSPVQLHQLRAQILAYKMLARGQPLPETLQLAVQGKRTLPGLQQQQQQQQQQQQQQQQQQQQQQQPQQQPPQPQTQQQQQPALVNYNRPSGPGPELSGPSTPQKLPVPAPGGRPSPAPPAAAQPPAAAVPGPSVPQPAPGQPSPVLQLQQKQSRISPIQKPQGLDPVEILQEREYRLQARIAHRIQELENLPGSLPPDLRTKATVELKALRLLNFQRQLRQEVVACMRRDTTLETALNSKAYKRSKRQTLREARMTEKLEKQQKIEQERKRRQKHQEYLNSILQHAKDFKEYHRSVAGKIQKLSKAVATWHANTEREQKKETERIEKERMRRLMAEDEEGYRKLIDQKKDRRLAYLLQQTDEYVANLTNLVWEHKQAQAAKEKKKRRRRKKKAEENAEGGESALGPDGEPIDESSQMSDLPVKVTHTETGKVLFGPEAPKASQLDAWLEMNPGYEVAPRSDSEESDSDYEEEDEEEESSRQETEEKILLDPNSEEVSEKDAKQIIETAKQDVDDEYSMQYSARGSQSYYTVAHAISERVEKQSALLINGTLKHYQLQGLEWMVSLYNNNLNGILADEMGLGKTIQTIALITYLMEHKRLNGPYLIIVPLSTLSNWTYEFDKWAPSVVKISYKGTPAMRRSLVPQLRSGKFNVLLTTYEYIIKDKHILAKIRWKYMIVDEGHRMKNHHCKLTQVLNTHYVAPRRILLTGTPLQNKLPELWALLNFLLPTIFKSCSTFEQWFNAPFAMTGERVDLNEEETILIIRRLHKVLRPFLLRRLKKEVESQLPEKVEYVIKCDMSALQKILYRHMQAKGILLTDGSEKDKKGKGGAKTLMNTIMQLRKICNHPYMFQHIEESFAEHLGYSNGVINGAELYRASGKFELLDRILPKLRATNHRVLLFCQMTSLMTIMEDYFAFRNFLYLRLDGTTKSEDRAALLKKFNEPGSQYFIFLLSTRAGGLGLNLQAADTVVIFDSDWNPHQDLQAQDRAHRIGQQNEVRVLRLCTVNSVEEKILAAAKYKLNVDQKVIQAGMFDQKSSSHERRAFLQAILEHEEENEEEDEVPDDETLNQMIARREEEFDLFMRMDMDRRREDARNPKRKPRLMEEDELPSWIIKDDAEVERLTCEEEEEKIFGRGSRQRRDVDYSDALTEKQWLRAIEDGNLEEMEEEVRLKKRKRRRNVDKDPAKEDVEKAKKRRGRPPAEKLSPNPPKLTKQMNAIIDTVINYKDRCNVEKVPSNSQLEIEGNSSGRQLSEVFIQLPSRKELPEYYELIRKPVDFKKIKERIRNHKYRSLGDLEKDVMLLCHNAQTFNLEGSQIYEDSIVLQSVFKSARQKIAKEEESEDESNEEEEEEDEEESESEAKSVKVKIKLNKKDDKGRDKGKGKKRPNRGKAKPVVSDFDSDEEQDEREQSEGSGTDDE
UniProt Q92922: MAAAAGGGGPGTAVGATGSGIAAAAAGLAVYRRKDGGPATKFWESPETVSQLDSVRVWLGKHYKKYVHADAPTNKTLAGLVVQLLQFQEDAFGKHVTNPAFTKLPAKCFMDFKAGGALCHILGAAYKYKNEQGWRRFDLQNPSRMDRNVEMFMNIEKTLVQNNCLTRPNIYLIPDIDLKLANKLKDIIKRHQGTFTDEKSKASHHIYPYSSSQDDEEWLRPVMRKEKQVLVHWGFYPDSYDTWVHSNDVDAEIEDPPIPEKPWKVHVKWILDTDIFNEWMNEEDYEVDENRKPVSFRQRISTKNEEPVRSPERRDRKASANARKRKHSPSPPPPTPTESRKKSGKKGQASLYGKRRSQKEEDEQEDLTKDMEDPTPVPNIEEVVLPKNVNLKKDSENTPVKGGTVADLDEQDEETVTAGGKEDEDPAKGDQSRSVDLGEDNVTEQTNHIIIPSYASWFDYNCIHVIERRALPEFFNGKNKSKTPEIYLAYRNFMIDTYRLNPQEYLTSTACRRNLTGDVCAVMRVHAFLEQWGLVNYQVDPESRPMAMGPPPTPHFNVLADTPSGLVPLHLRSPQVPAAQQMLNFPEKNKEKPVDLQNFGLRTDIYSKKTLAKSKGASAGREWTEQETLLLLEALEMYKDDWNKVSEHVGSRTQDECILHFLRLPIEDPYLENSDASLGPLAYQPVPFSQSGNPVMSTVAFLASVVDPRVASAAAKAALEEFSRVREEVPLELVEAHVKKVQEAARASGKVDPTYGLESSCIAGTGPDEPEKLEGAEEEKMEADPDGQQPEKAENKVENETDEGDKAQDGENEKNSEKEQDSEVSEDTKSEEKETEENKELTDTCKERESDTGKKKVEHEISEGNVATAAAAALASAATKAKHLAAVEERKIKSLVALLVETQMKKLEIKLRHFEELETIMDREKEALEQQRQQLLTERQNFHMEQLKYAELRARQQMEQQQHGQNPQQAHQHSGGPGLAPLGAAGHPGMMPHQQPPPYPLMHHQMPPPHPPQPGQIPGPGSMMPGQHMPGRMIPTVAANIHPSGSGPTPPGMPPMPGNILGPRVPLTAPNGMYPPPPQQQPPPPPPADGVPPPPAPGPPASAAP
UniProt Q96GM5: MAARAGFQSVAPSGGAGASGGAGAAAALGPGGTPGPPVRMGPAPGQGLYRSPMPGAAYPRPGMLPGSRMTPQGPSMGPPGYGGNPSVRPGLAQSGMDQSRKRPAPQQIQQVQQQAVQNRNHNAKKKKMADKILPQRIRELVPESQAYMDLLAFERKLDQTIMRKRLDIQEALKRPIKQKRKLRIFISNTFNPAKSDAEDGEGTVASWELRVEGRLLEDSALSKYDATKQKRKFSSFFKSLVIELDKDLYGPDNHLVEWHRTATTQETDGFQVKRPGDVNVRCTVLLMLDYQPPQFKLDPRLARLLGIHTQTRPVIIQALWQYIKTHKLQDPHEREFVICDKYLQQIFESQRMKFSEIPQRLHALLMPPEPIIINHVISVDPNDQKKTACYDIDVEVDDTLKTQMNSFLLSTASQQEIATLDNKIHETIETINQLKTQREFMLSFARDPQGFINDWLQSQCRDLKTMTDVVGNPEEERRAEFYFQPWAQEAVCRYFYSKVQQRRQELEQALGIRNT
UniProt Q92925: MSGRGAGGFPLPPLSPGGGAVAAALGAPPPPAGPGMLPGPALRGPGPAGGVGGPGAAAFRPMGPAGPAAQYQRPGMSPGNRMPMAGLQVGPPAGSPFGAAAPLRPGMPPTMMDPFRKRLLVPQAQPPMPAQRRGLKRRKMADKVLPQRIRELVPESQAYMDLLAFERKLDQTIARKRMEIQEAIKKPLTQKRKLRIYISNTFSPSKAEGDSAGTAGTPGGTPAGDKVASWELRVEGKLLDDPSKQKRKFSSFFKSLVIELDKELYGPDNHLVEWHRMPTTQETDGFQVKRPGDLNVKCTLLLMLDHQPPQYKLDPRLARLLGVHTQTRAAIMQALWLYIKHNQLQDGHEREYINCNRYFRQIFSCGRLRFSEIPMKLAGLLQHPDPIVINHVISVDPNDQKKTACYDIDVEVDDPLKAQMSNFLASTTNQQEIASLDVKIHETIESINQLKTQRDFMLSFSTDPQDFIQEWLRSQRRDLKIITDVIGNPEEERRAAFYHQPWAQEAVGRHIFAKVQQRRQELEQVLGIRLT
UniProt Q969G3: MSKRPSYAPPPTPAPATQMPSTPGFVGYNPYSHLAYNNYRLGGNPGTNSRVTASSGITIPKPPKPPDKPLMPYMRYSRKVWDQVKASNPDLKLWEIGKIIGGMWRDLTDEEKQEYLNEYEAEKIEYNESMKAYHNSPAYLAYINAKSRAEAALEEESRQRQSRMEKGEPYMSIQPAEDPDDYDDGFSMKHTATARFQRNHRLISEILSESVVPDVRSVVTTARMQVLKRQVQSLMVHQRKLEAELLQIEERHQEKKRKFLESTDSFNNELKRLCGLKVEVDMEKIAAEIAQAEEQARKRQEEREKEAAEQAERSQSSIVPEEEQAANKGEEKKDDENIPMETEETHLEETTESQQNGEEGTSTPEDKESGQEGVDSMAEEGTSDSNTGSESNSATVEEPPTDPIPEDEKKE

This experiment has as its target survivin (human (endogenous in THP1)) (UniProt O15392). Kind of experiment: affinity purification with mass spectrometry.
On to DPF2 (from UniProt Q92785 1-391), for which the binding entry is “binds”.

On to PBRM1 (from UniProt Q86U86 1-1689), for which the binding entry is given as “binds”.

For the substance SMARCA2 (from UniProt P51531 1-1590), the binding result is on record as “binds”.

In the case of SMARCA4 (from UniProt P51532 1-1647), the binding result was “binds”.

For SMARCC1 (from UniProt Q92922 1-1105), the binding entry is given as “binds”.

Take SMARCC2 (from UniProt Q8TAQ2 1-1214): the binding entry is given as “binds”.

As to SMARCD1 (from UniProt Q96GM5 1-515), the binding result is “binds”.

Take SMARCD2 (from UniProt Q92925 1-531): the binding result is recorded as “binds”.

Turning to SMARCE1 (from UniProt Q969G3 1-411), the binding entry is given as “binds”.

For the origin of these results see paper doi:10.1101/2024.03.05.583464.
